Literature values, collected in patent US20080194639A1, “Proton Pump Inhibitors in the Treatment of Sleep Disturbance Due to Silent Gastroesophageal Reflux” (priority 2005, published 2008).
Read-outs that look alike come from different tables or passages of the source. For at least one compound, name, drawing or mass did not settle the structure.

Test system: subjects with reflux events during sleep

In the case of `COc1ccc2[nH]c([S+]([O-])Cc3ncc(C)c(OC)c3C)nc2c1` (stereo not shown) [omeprazole], the “number of awakenings preceded by reflux events (mean ± S.E.)” value (11 subjects with reflux, post-treatment with omeprazole, pre-treatment 3.7±0.9, P<0.05) is given as 1.3±0.5, the “number of arousals preceded by reflux events” value (11 subjects with reflux, post-treatment with omeprazole, pre-treatment 11.6±3.8, P<0.01) is given as 1.5±0.8 and the “total time (pH<4)” value (11 subjects with reflux, post-treatment with omeprazole, pre-treatment 38.7±13.7, P<0.05) is given as 5.3±1.6 min. The number of arousals (six subjects with impaired sleep, post-treatment with omeprazole, pre-treatment 3.3, P<0.05) was 1.5 k 0.6, the number of awakenings (six subjects with impaired sleep, post-treatment with omeprazole, pre-treatment 8.7±2.0, P<0.01) was 3.2±0.7 and the “rapid eye movement sleep time” value (six subjects with sleep efficiency<80% before omeprazole, post-treatment, pre-treatment 55.0±4.5, P<0.05) was 94.5 ± 18.9 min. The “total time (pH<4)” value (six subjects with sleep efficiency<80% before omeprazole, post-treatment, pre-treatment 59.2±13.7, P<0.05) was 4.0±1.6 min, the sleep efficiency (six subjects with sleep efficiency<80% before omeprazole, post-treatment, pre-treatment 70.2%, P<0.05) was 81.6% and the total awake time (six subjects with sleep efficiency<80% before omeprazole, post-treatment, pre-treatment 99.1±17.9, P<0.05) was 46.1 ± 15.3 min. For the same molecule, the “total sleep time (mean ± S.E.)” value (six subjects with sleep efficiency<80% before omeprazole, post-treatment, pre-treatment 294.0, P<0.05) was 345.6 ± 55.6 min.
